According to the supplement of paper PMC10849652:
Some of the results follow.

The chains behind the UniProt entries cited, without tags or fusion partners. Where a name states a change or a piece, a line headed by the entry shows the natural chain unless it says otherwise.
UniProt Q9Y3E7, whole entry, looked up: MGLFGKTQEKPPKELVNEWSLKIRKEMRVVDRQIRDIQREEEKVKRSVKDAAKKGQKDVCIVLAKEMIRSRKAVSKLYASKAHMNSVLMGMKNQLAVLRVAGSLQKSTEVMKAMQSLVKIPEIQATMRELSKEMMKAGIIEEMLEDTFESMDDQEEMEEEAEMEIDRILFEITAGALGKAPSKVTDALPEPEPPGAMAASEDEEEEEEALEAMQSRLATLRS
UniProt P23528, whole entry, looked up: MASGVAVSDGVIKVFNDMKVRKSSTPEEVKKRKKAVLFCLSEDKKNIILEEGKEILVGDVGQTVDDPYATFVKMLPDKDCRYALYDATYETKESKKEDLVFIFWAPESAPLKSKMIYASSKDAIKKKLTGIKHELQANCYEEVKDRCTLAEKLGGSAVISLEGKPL
UniProt Q9HD42: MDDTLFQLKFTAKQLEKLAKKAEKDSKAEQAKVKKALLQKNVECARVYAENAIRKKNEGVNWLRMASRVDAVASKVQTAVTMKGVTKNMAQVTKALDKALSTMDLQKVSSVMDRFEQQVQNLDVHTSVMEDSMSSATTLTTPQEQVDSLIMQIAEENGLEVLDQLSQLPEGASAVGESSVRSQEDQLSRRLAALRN
UniProt Q7LBR1: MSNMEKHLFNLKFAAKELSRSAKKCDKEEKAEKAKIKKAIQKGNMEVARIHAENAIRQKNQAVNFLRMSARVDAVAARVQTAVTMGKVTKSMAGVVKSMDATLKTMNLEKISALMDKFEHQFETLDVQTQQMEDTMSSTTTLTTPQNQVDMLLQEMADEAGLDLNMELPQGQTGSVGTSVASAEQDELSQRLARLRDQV
UniProt Q9UKY7: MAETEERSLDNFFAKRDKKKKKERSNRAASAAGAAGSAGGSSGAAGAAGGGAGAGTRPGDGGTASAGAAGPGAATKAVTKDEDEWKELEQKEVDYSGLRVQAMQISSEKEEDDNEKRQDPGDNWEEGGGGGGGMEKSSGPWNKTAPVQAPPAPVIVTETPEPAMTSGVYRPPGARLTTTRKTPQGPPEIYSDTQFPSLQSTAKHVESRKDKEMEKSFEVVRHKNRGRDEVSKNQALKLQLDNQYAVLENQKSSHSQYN
UniProt Q00534, whole entry, looked up: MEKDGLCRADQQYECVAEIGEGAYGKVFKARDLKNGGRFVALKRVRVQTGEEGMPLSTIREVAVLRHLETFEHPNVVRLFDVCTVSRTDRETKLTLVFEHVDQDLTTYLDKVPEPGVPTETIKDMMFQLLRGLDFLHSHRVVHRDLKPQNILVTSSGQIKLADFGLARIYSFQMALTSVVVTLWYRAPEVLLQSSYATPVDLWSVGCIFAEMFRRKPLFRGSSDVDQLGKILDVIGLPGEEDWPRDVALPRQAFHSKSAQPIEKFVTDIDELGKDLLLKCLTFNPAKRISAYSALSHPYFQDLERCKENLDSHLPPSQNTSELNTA
UniProt P49336: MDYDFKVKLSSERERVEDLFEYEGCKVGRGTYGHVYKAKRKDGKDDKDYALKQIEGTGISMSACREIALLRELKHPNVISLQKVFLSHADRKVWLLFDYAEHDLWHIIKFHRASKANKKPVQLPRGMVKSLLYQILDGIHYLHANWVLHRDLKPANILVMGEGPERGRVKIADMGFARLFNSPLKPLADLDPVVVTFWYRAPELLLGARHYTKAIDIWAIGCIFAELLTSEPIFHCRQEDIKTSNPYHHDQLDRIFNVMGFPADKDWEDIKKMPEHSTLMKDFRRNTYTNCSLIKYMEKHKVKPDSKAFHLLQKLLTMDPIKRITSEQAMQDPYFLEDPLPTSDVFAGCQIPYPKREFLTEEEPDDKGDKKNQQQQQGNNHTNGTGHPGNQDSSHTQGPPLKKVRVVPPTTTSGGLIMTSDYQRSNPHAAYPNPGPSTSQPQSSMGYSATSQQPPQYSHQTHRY
UniProt Q9Y6K0: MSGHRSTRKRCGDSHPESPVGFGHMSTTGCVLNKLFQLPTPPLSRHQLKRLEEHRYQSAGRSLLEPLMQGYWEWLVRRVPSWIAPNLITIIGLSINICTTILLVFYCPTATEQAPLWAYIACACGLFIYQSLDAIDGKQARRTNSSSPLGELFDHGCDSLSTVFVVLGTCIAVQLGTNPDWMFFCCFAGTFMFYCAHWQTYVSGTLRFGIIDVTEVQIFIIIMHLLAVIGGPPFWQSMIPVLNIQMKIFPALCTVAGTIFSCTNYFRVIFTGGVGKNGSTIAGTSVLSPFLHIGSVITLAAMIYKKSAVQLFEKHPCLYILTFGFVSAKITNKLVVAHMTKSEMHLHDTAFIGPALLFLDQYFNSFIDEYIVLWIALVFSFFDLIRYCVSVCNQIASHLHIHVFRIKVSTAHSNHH
UniProt Q96CF2: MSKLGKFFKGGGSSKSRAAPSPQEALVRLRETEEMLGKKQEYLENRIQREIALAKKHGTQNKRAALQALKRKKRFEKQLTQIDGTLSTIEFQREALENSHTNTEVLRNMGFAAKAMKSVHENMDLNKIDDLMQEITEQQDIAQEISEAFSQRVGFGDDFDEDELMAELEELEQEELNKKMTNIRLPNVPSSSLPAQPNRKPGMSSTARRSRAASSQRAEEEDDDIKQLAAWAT
UniProt Q96JM3: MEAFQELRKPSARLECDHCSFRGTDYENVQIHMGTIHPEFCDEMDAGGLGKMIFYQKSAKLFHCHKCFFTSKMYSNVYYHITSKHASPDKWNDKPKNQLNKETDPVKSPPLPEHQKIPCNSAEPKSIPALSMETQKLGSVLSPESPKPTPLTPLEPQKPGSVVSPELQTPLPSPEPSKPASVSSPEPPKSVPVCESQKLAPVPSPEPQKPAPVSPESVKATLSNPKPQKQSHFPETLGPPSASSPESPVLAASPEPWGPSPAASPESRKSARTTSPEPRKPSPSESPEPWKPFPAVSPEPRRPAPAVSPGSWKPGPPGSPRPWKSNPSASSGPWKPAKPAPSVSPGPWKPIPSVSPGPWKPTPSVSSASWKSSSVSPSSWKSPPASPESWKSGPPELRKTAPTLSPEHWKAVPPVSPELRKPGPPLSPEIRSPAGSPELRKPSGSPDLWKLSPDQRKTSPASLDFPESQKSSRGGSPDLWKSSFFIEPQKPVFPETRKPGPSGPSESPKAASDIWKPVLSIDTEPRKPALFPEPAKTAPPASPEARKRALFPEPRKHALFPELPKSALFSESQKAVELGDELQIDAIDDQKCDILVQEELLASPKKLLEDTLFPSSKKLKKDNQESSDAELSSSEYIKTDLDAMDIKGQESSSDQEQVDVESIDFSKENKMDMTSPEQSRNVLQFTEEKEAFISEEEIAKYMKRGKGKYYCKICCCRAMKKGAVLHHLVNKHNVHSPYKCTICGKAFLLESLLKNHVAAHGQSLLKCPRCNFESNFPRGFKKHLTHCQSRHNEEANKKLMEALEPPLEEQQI
UniProt Q96JB5: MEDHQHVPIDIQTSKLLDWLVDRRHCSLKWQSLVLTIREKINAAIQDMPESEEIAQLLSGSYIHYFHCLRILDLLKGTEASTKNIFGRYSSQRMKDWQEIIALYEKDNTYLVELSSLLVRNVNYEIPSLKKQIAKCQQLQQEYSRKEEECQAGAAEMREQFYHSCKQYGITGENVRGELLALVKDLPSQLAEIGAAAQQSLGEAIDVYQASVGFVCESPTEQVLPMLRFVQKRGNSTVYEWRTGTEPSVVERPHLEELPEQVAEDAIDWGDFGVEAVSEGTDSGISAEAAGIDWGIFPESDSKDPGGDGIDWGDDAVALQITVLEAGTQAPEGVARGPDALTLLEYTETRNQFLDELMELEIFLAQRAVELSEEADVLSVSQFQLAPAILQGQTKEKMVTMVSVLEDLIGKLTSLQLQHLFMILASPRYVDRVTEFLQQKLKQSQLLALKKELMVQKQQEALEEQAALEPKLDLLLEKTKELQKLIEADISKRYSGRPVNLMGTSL
UniProt P11802: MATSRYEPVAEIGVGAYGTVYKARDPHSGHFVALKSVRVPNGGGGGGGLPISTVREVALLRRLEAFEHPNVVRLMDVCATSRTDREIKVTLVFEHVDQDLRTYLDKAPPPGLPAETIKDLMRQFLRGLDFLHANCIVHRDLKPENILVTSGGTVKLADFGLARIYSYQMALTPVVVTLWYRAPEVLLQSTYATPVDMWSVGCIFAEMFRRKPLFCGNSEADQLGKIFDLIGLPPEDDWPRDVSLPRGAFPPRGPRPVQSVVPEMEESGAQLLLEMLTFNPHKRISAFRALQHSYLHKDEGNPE
UniProt Q96G28: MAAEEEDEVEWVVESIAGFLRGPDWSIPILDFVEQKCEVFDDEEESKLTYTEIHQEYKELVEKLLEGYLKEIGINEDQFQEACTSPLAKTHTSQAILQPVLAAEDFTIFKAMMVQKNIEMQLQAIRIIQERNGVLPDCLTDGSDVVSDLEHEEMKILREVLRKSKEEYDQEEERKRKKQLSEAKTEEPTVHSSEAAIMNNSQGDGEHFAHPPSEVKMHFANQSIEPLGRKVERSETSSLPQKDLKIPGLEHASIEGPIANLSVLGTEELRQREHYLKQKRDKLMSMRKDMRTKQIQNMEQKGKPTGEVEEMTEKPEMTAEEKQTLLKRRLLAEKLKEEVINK
UniProt Q14839: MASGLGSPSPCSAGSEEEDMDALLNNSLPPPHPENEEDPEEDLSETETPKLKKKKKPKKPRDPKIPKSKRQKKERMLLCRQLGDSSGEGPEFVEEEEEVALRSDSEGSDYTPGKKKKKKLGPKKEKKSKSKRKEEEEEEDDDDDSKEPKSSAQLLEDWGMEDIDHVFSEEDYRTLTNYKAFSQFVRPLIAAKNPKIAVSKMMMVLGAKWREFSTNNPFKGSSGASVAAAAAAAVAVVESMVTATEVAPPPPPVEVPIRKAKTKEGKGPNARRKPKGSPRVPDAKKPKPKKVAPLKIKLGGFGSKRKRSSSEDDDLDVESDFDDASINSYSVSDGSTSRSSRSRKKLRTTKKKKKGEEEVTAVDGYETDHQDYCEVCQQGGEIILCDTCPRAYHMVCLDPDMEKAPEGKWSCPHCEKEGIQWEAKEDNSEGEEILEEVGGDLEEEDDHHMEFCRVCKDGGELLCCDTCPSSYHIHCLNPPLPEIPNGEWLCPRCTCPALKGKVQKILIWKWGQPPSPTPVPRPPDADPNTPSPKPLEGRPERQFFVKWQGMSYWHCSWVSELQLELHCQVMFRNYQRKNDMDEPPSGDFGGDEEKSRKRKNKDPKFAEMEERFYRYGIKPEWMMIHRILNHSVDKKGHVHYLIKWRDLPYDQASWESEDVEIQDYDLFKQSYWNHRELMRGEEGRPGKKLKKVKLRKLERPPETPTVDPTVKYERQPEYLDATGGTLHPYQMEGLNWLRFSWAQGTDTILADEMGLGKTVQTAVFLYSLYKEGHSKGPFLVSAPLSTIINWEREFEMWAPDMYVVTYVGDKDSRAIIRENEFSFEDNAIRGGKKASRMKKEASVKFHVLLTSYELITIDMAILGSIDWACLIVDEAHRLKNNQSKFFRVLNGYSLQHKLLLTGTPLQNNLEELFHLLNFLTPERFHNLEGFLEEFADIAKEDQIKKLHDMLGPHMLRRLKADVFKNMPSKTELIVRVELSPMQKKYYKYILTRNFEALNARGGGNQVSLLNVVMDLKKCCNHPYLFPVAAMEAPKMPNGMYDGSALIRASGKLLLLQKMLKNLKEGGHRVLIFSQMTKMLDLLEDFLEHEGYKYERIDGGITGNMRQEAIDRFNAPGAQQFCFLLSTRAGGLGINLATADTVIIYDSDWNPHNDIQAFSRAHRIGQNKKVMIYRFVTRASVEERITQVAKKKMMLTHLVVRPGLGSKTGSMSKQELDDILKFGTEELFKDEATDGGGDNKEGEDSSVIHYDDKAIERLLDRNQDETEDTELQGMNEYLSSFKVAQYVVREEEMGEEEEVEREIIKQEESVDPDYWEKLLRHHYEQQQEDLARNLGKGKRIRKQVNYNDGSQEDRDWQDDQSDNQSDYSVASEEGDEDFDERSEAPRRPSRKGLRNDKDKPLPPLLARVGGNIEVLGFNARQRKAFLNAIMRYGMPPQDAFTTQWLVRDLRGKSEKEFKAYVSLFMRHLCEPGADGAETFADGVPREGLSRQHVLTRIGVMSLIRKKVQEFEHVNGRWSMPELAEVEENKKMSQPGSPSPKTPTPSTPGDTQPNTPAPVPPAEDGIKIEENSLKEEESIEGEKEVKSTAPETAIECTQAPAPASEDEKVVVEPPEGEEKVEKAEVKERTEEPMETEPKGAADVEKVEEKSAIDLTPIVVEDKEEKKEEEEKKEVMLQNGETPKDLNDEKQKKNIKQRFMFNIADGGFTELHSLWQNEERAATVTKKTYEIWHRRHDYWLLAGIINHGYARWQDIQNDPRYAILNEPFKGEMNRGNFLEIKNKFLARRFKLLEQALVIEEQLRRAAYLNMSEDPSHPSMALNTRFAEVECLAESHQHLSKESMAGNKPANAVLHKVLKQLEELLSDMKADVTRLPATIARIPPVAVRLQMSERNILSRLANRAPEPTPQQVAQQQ

Experiments:
Assay in all cases: log2 fold change, soluble protein after heating vs DMSO (PISA); higher = thermal stabilisation; K562 cells, 10 uM, 30 min; active = over 0.2 and 3.5 SD of the protein, either way, in both replicates (recomputed)
[1] = compound: CC1=C(C=C(C=C1)NC(=O)C2=CC(=CC=C2)C(C)(C)C#N)NC3=CC4=C(C=C3)N=CN(C4=O)C
Procedure, shortened: (§1)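 For each measurement, 10 μM compound was applied for 30 min to K562 cells at 2×10^6 cells/mL. Aliquots were heated for 3 min across 48°C-58°C, pooled, and extracted in PBS with 0.5% NP-40 at 4°C; the supernatant after 21,000xg for 90 min was soluble protein. This was quantified by TMTpro 16plex LC-MS/MS with channel sums equalised, and thermal stability was reported relative to control samples from duplicates, on a log2 fold-change scale.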

[2] = compound: CC1=C(C=C(C=C1)NC(=O)C2=CC(=CC=C2)N(C)C)NC(=O)C3=CC=C(C=C3)O
Procedure, shortened: as §1

[3] = compound: CC1=CC=C(C=C1)SC2=C3C=C(SC3=CN=C2)C(=O)N
Procedure, shortened: as §1

[4] = compound: CC1=NC(=CC=C1)C2=C(N=C(N2)C(C)(C)C)C3=CC4=NC=CN=C4C=C3
Procedure, shortened: as §1

Nexturastat A = compound: CCCCN(Cc1ccc(C(=O)NO)cc1)C(=O)Nc1ccccc1 [Nexturastat A]
Procedure, shortened: as §1

vemurafenib = compound: CCCS(=O)(=O)Nc1ccc(F)c(C(=O)c2c[nH]c3ncc(-c4ccc(Cl)cc4)cc23)c1F [vemurafenib]
Procedure, shortened: as §1

[5] = compound: CCCS(=O)(=O)Nc1ccc(F)c(C(=O)c2c[nH]c3ncc(Cl)cc23)c1F
Procedure, shortened: as §1

[6] = compound: CCCc1cc(C)[nH]c(=O)c1CNC(=O)c1cc(-c2ccnc(N3CCN(C)CC3)c2)cc2c1cnn2C(C)C
Procedure, shortened: as §1

givinostat = compound: CCN(CC)Cc1ccc2cc(COC(=O)Nc3ccc(C(=O)NO)cc3)ccc2c1 [givinostat]
Procedure, shortened: as §1

barasertib = compound: CCN(CCCOc1ccc2c(Nc3cc(CC(=O)Nc4cccc(F)c4)[nH]n3)ncnc2c1)CCOP(=O)(O)O [barasertib]
Procedure, shortened: as §1

[7] = compound: CC[C@@H]1C(=O)N(C)c2cnc(Nc3ccc(C(=O)NC4CCN(C)CC4)cc3OC)nc2N1C1CCCC1
Procedure, shortened: as §1

volasertib = compound: CC[C@@H]1C(=O)N(C)c2cnc(Nc3ccc(C(=O)N[C@H]4CC[C@H](N5CCN(CC6CC6)CC5)CC4)cc3OC)nc2N1C(C)C [volasertib]
Procedure, shortened: as §1

[8] = compound: CC[C@H](C)N1C=C(C2=C(C=C(C=C21)C3=CN=C(C=C3)N4CCNCC4)C(=O)NCC5=C(C=C(NC5=O)C)C)C
Procedure, shortened: as §1

epoxomicin = compound: CC[C@H](C)[C@@H](C(=O)N[C@@H]([C@@H](C)O)C(=O)N[C@@H](CC(C)C)C(=O)[C@]1(CO1)C)NC(=O)[C@H]([C@@H](C)CC)N(C)C(=O)C [epoxomicin]
Procedure, shortened: as §1

[9] = compound: CCn1c(C(=O)N(C2CC2)C2CC2)cc2c3c(ncn3C)c(Nc3cc(C)n(C)n3)nc21
Procedure, shortened: as §1

[10] = compound: CCn1cc(-c2ccnc3[nH]c(-c4cccc(CN(C)C)c4)cc23)c(-c2ccc(NC(=O)N(C)C)cc2)n1
Procedure, shortened: as §1

[11] = compound: CN(C)CC(=O)Nc1ccc2[nH]c(=O)c3ccccc3c2c1
Procedure, shortened: as §1

rosiglitazone = compound: CN(CCOC1=CC=C(C=C1)C[C@H]2C(=O)NC(=O)S2)C3=CC=CC=N3 (racemic) [rosiglitazone]
Procedure, shortened: as §1

[12] = compound: CN1C2=C(C3=C1C(=O)N(N=C3)CC4=CC(=CC=C4)N)SC(=C2)S(=O)C
Procedure, shortened: as §1

[13] = compound: CN1CCC(CNc2ccc3ncc(-c4cccc(OC(F)(F)F)c4)n3n2)CC1
Procedure, shortened: as §1

| Target | log2 fold change [1] | log2 fold change [2] | log2 fold change [3] | log2 fold change [4] | log2 fold change (Nexturastat A) | log2 fold change (vemurafenib) | log2 fold change [5] | log2 fold change [6] | log2 fold change (givinostat) | log2 fold change (barasertib) | log2 fold change [7] | log2 fold change (volasertib) | log2 fold change [8] | log2 fold change (epoxomicin) | log2 fold change [9] | log2 fold change [10] | log2 fold change [11] | log2 fold change (rosiglitazone) | log2 fold change [12] | log2 fold change [13] |
| --- | --- | --- | --- | --- | --- | --- | --- | --- | --- | --- | --- | --- | --- | --- | --- | --- | --- | --- | --- | --- |
| CHMP3 (UniProt Q9Y3E7) | inactive: -0.016 | inactive: 0.03 | inactive: 0.013 | inactive: -0.021 | inactive: -0.095 | inactive: -0.021 | inactive: 0.007 | inactive: -0.122 | inactive: -0.021 | inactive: 0.039 | inactive: -0.115 | inactive: -0.101 | inactive: 0.006 | inactive: 0 | inactive: 0.034 | inactive: -0.036 | inactive: -0.068 | inactive: 0.011 | inactive: -0.021 | inactive: -0.126 |
| CFL1 (UniProt P23528) | inactive: 0.11 | inactive: -0.017 | inactive: -0.006 | inactive: 0.031 | inactive: -0.073 | inactive: 0.014 | inactive: -0.002 | inactive: 0.006 | inactive: -0.035 | inactive: 0.025 | inactive: -0.115 | inactive: 0.056 | inactive: 0.044 | inactive: 0.079 | inactive: 0.039 | inactive: -0.025 | inactive: 0.001 | inactive: -0.018 | inactive: -0.04 | inactive: 0.054 |
| CHMP1A (UniProt Q9HD42) | inactive: -0.01 | inactive: 0.032 | inactive: 0.02 | inactive: 0.023 | inactive: -0.042 | inactive: -0.015 | inactive: -0.007 | inactive: -0.05 | inactive: -0.016 | inactive: 0.025 | inactive: -0.184 | inactive: -0.084 | inactive: 0.009 | inactive: 0.03 | inactive: 0.048 | inactive: -0.005 | inactive: -0.024 | inactive: -0.02 | inactive: -0.08 | inactive: -0.134 |
| CHMP1B (UniProt Q7LBR1) | inactive: -0.033 | inactive: 0.026 | inactive: 0.033 | inactive: -0.034 | inactive: 0.046 | inactive: -0.097 | inactive: 0.028 | inactive: -0.074 | inactive: 0.039 | inactive: 0.008 | inactive: 0.017 | inactive: -0.173 | inactive: -0.078 | inactive: -0.026 | inactive: 0.05 | inactive: -0.012 | inactive: -0.092 | inactive: 0.008 | inactive: -0.009 | inactive: -0.034 |
| CELF1 isoform 4 (UniProt Q92879) | inactive: 0.12 | inactive: -0.046 | inactive: 0.048 | inactive: 0.062 | inactive: 0.007 | inactive: 0.087 | inactive: 0.088 | inactive: 0.13 | inactive: 0.078 | inactive: 0.074 | inactive: -0.088 | inactive: -0.345 | inactive: 0.171 | inactive: 0.003 | inactive: -0.144 | inactive: -0.062 | inactive: 0.118 | inactive: 0.082 | inactive: -0.039 | inactive: -0.032 |
| CDV3 (UniProt Q9UKY7) | inactive: 0.047 | inactive: 0.027 | inactive: -0.038 | inactive: 0.179 | inactive: -0.079 | inactive: 0.013 | inactive: -0.07 | inactive: -0.017 | inactive: 0.002 | inactive: -0.01 | inactive: -0.017 | inactive: 0.103 | inactive: -0.01 | inactive: 0.047 | inactive: 0.031 | inactive: 0.006 | inactive: -0.021 | inactive: -0.028 | inactive: -0.043 | inactive: 0.036 |
| CDK6 (UniProt Q00534) | inactive: -0.037 | inactive: 0.01 | inactive: 0.044 | inactive: 0 | inactive: 0.032 | inactive: 0.002 | inactive: -0.024 | inactive: -0.027 | inactive: -0.019 | inactive: -0.018 | inactive: -0.027 | inactive: -0.03 | inactive: 0.007 | inactive: 0.088 |  | inactive: 0.014 | inactive: 0.007 |  | inactive: 0.062 | inactive: -0.1 |
| CDK13 (UniProt Q14004) | inactive: 0.045 | inactive: 0.027 | inactive: -0.047 | inactive: 0.056 | inactive: -0.212 | inactive: -0.056 | inactive: -0.037 | inactive: -0.011 | inactive: -0.021 | inactive: -0.029 | inactive: 0.025 | inactive: 0.09 | inactive: 0.034 | inactive: -0.032 |  | inactive: 0.018 | inactive: 0.004 |  | inactive: 0.233 | inactive: -0.047 |
| CDK8 (UniProt P49336) | inactive: 0.002 | inactive: -0.005 | inactive: 0.322 | inactive: 0.064 | inactive: -0.125 | inactive: 0.041 | inactive: 0.044 | inactive: -0.081 | inactive: 0.02 | inactive: -0.343 | inactive: 0.096 | inactive: -0.039 |  | inactive: -0.098 |  | inactive: -0.236 | inactive: -0.044 |  | inactive: -0.025 | inactive: 0.356 |
| CDK11B (UniProt P21127) | inactive: -0.079 | inactive: 0.214 | inactive: -0.109 | inactive: 0.071 | inactive: 0.038 | inactive: 0.029 | inactive: -0.064 | inactive: -0.063 | inactive: 0.114 | inactive: 0.028 | inactive: 0.087 | inactive: 0.047 | inactive: 0.028 | inactive: -0.072 |  | inactive: -0.01 | inactive: -0.107 |  | inactive: 0.005 | inactive: 0.094 |
| CEPT1 (UniProt Q9Y6K0) | inactive: 0.048 | inactive: 0.068 | inactive: 0.005 | inactive: 0.069 | inactive: -0.123 | inactive: 0.123 | inactive: 0.016 | inactive: -0.122 | inactive: -0.023 | inactive: 0.013 | inactive: -0.186 | inactive: -0.231 | inactive: -0.066 | inactive: -0.043 |  | inactive: -0.025 | inactive: 0.059 |  | inactive: -0.072 | inactive: 0.03 |
| CHMP4C (UniProt Q96CF2) | inactive: -0.173 | inactive: -0.01 | inactive: 0.02 | inactive: 0.081 | active: 0.443 | inactive: 0.019 | inactive: -0.022 | inactive: -0.021 | inactive: -0.07 | inactive: 0.01 | inactive: -0.23 | inactive: -0.043 | inactive: -0.014 | inactive: -0.016 |  | inactive: -0.034 | inactive: 0.005 |  | inactive: -0.206 | inactive: -0.089 |
| CHAMP1 (UniProt Q96JM3) | inactive: -0.003 | inactive: -0.018 | inactive: 0.005 | inactive: -0.012 | inactive: 0.011 | inactive: -0.01 | inactive: -0.011 | inactive: -0.003 | inactive: 0.032 | inactive: 0.027 | inactive: -0.035 | active: -0.357 | inactive: 0.181 | inactive: 0.016 |  | inactive: -0.095 | inactive: 0.014 |  | inactive: 0.038 | inactive: -0.302 |
| CDK5RAP3 isoform 4 (UniProt Q96JB5) | inactive: 0.018 | inactive: -0.035 | inactive: 0.008 | inactive: 0.015 | inactive: 0.051 | inactive: 0.044 | inactive: 0.077 | inactive: -0.015 | inactive: 0.109 | inactive: 0.029 | inactive: -0.056 | active: -0.296 | inactive: 0 | inactive: 0.021 |  | inactive: -0.007 | inactive: 0.033 |  | inactive: -0.024 | inactive: -0.002 |
| CDK4 (UniProt P11802) | inactive: -0.077 | inactive: -0.003 | inactive: 0.015 | inactive: -0.005 | inactive: 0.166 | inactive: -0.161 | inactive: -0.128 | inactive: -0.025 | inactive: -0.009 | inactive: -0.023 | inactive: 0.16 | inactive: 0.071 | inactive: 0.117 | inactive: 0.16 |  |  | inactive: -0.085 |  | inactive: 0.146 |  |
| CFAP36 isoform 2 (UniProt Q96G28) | inactive: 0.005 | inactive: 0.024 | inactive: 0.054 | inactive: 0.066 | inactive: 0.023 | inactive: -0.041 | inactive: 0.012 | inactive: -0.061 | inactive: -0.003 | inactive: 0.03 | inactive: -0.159 | active: -0.433 |  | inactive: -0.017 |  | inactive: 0.048 | inactive: 0.005 |  | inactive: 0.051 | inactive: -0.049 |
| CHD4 isoform 2 (UniProt Q14839) | inactive: 0.011 | inactive: -0.028 | inactive: 0.062 | inactive: -0.014 | inactive: 0.087 | inactive: 0.068 | inactive: 0.116 | inactive: 0.101 | inactive: 0.154 | inactive: 0.121 | inactive: -0.124 | inactive: -0.382 | inactive: 0.158 | inactive: 0.069 |  | inactive: 0.098 | inactive: 0.048 |  | inactive: 0.1 | inactive: -0.073 |

Record cards, from the list above. Order of values: log2 fold change [1]	log2 fold change [2]	log2 fold change [3]	log2 fold change [4]	log2 fold change (Nexturastat A)	log2 fold change (vemurafenib)	log2 fold change [5]	log2 fold change [6]	log2 fold change (givinostat)	log2 fold change (barasertib)	log2 fold change [7]	log2 fold change (volasertib)	log2 fold change [8]	log2 fold change (epoxomicin)	log2 fold change [9]	log2 fold change [10]	log2 fold change [11]	log2 fold change (rosiglitazone)	log2 fold change [12]	log2 fold change [13]
CHMP1A (UniProt Q9HD42) reads inactive: -0.01	inactive: 0.032	inactive: 0.02	inactive: 0.023	inactive: -0.042	inactive: -0.015	inactive: -0.007	inactive: -0.05	inactive: -0.016	inactive: 0.025	inactive: -0.184	inactive: -0.084	inactive: 0.009	inactive: 0.03	inactive: 0.048	inactive: -0.005	inactive: -0.024	inactive: -0.02	inactive: -0.08	inactive: -0.134
CHMP3 (UniProt Q9Y3E7) reads inactive: -0.016	inactive: 0.03	inactive: 0.013	inactive: -0.021	inactive: -0.095	inactive: -0.021	inactive: 0.007	inactive: -0.122	inactive: -0.021	inactive: 0.039	inactive: -0.115	inactive: -0.101	inactive: 0.006	inactive: 0	inactive: 0.034	inactive: -0.036	inactive: -0.068	inactive: 0.011	inactive: -0.021	inactive: -0.126
